Reference: article PMC11589570, “Critical assessment of LC3/GABARAP ligands used for degrader development and ligandability of LC3/GABARAP binding pockets” (Nature Communications, 2024)
Several values for one entry are separate records, joined by “and”; a condition that tells them apart may be missing. Equal values may be shown once. This continues a long series; more values of the same kind are listed elsewhere.

Test system: U2OS cells
Experiment: Cell growth assay (IncuCyte confluence over 72 h)
Format: cell-based
Design: key: % of well area covered by cells (confluence)
Conditions: listed as AN1
Method: Cell growth assay: Cell confluence (phase) from RPE1 (hTERT RPE-1, ATCC CLR_4000) or U2OS (ATCC, HTB-96) cell lines were monitored over time with the IncuCyte S3 (Sartiorius, Germany) in 384-well plates in 50 ul DMEM media, supplemented with 10% Fetal Bovine Serum (FBS) 1% penicillin/Streptomycin and incubated 24 h before treatment. Experiment was performed as described in Cano-Franco et al.. […] Cell confluence is represented as % of area covered by cells. Each data point represents the average ratio or confluence obtained from three individual wells of the plate.

Structure (SMILES): O=C1Nc2ccc(Br)cc2C1=Cc1cc(O)c(O)c(Br)c1 [compound 1]
- U2OS cell growth (3 uM, 20 h): 49.5372 and 63.9954 and 66.5979
- U2OS cell growth (3 uM, 22 h): 71.9828 and 74.2941 and 71.4786
- U2OS cell growth (3 uM, 24 h): 68.3189 and 75.8628 and 73.4788
- U2OS cell growth (3 uM, 26 h): 68.531 and 74.8786 and 76.0744
- U2OS cell growth (3 uM, 28 h): 73.2218 and 82.5864 and 77.9138
- U2OS cell growth (3 uM, 30 h): 54.1977 and 72.9996 and 80.6851
- U2OS cell growth (3 uM, 32 h): 79.6776 and 84.5464 and 83.8305
- U2OS cell growth (3 uM, 34 h): 74.8762 and 79.5995 and 82.9707
- U2OS cell growth (3 uM, 36 h): 75.3876 and 84.9019 and 85.9964
- U2OS cell growth (3 uM, 38 h): 82.926 and 90.304 and 88.3974
- U2OS cell growth (3 uM, 40 h): 88.2242 and 92.4014 and 92.1105
- U2OS cell growth (3 uM, 44 h): 94.0842 and 94.3574 and 93.1037
- U2OS cell growth (3 uM, 46 h): 82.2102 and 87.7126 and 90.0824
- U2OS cell growth (3 uM, 48 h): 89.1328 and 96.9598 and 96.585
- U2OS cell growth (3 uM, 50 h): 90.0128 and 96.1353 and 95.2835
- U2OS cell growth (3 uM, 52 h): 95.9996 and 98.499 and 96.29
- U2OS cell growth (3 uM, 56 h): 97.5757 and 98.1744 and 98.4306
- U2OS cell growth (3 uM, 58 h): 97.4982 and 98.984 and 98.5198
- U2OS cell growth (3 uM, 60 h): 99.2604 and 99.8989 and 99.4423
- U2OS cell growth (3 uM, 62 h): 99.5537 and 99.8097 and 99.0391
- U2OS cell growth (3 uM, 64 h): 96.4104 and 99.6436 and 99.704
- U2OS cell growth (3 uM, 66 h): 99.6008 and 99.9064 and 99.545
- U2OS cell growth (3 uM, 68 h): 99.3531 and 99.9053 and 99.6846
- U2OS cell growth (3 uM, 70 h): 99.6278 and 99.9759 and 99.8607
- U2OS cell growth (3 uM, 72 h): 99.9524 and 99.994 and 99.8329
- U2OS cell growth (3 uM, time 0 h): 29.7201 and 47.2784 and 41.7377
- U2OS cell growth (3 uM, time 2 h): 29.7842 and 54.6617 and 48.4873
- U2OS cell growth (3 uM, time 4 h): 33.9624 and 54.0786 and 52.9009
- U2OS cell growth (3 uM, time 6 h): 38.8605 and 51.1228 and 50.7719
- U2OS cell growth (3 uM, time 8 h): 42.1337 and 57.7255 and 41.8843
- U2OS cell growth (3 uM, time 22 h): 60.2144 and 74.486 and 64.0311
- U2OS cell growth (3 uM, time 24 h): 55.621 and 70.7252 and 66.2885
- U2OS cell growth (3 uM, time 26 h): 60.3322 and 73.2809 and 74.2642
- U2OS cell growth (3 uM, time 28 h): 62.8302 and 79.3873 and 67.846
- U2OS cell growth (3 uM, time 30 h): 63.2269 and 78.0479 and 71.695
- U2OS cell growth (3 uM, time 32 h): 66.5849 and 82.5124 and 76.6779
- U2OS cell growth (3 uM, time 34 h): 65.6557 and 75.9494 and 77.2737
- U2OS cell growth (3 uM, time 36 h): 69.6563 and 84.3381 and 81.5701
- U2OS cell growth (3 uM, time 38 h): 74.2243 and 83.92 and 78.0675
- U2OS cell growth (3 uM, time 40 h): 76.6182 and 88.9657 and 83.5985
- U2OS cell growth (3 uM, time 42 h): 77.3452 and 86.9234 and 83.4074
- U2OS cell growth (3 uM, time 44 h): 79.8815 and 89.9187 and 87.8127
- U2OS cell growth (3 uM, time 46 h): 69.75 and 87.7092 and 81.9132
- U2OS cell growth (3 uM, time 48 h): 77.927 and 90.5394 and 87.7588
- U2OS cell growth (3 uM, time 50 h): 77.3102 and 91.5974 and 89.1349
- U2OS cell growth (3 uM, time 52 h): 83.1764 and 94.577 and 93.1094
- U2OS cell growth (3 uM, time 54 h): 81.4243 and 90.052 and 92.5145
- U2OS cell growth (3 uM, time 56 h): 87.3425 and 96.9804 and 93.3521
- U2OS cell growth (3 uM, time 60 h): 91.8917 and 99.073 and 98.2955
- U2OS cell growth (3 uM, time 62 h): 92.7416 and 98.9046 and 97.9563
- U2OS cell growth (3 uM, time 64 h): 90.0012 and 99.0949 and 98.9711
- U2OS cell growth (3 uM, time 66 h): 93.1677 and 99.0281 and 98.6746
- U2OS cell growth (3 uM, time 70 h): 95.9313 and 99.6209 and 99.6222
- U2OS cell growth (3 uM, time 72 h): 96.7519 and 99.7991 and 99.6458
- U2OS cell growth (5 uM, 20 h): 66.1105 and 66.9281 and 68.7152
- U2OS cell growth (5 uM, 22 h): 72.1661 and 69.0033 and 72.3438
- U2OS cell growth (5 uM, 24 h): 76.2192 and 69.7907 and 74.8997
- U2OS cell growth (5 uM, 26 h): 75.7604 and 73.2768 and 78.9965
- U2OS cell growth (5 uM, 28 h): 80.0384 and 75.5499 and 82.1865
- U2OS cell growth (5 uM, 30 h): 81.5639 and 78.4728 and 82.9593
- U2OS cell growth (5 uM, 32 h): 84.2914 and 79.4472 and 84.9655
- U2OS cell growth (5 uM, 34 h): 85.2005 and 83.1739 and 87.1373
- U2OS cell growth (5 uM, 36 h): 88.1636 and 83.5088 and 91.0693
- U2OS cell growth (5 uM, 38 h): 89.6612 and 85.0601 and 91.0446
- U2OS cell growth (5 uM, 40 h): 91.6041 and 89.3128 and 95.5071
- U2OS cell growth (5 uM, 42 h): 94.9692 and 92.1558 and 96.7607
- U2OS cell growth (5 uM, 44 h): 95.0679 and 92.2568 and 97.8147
- U2OS cell growth (5 uM, 46 h): 93.3904 and 93.3329 and 95.5299
- U2OS cell growth (5 uM, 50 h): 95.5007 and 93.8085 and 97.3956
- U2OS cell growth (5 uM, 54 h): 95.5438 and 96.6612 and 98.4762
- U2OS cell growth (5 uM, 56 h): 99.0888 and 97.7893 and 98.9685
- U2OS cell growth (5 uM, 60 h): 99.625 and 98.7381 and 99.85
- U2OS cell growth (5 uM, 62 h): 99.5606 and 98.9479 and 99.8264
- U2OS cell growth (5 uM, 64 h): 99.7444 and 98.9484 and 99.9513
- U2OS cell growth (5 uM, 66 h): 99.8972 and 99.2655 and 99.5228
- U2OS cell growth (5 uM, 68 h): 99.8256 and 99.7983 and 99.8674
- U2OS cell growth (5 uM, 70 h): 99.9624 and 99.7878 and 99.9768
- U2OS cell growth (5 uM, 72 h): 99.9714 and 99.9585 and 99.9158
- U2OS cell growth (5 uM, time 0 h): 36.551 and 37.5498 and 37.4124
- U2OS cell growth (5 uM, time 2 h): 43.9795 and 41.3375 and 41.452
- U2OS cell growth (5 uM, time 4 h): 47.3866 and 48.3912 and 45.4736
- U2OS cell growth (5 uM, time 6 h): 49.4313 and 48.8996 and 59.1056
